Source: paper PMC11367503, “Exploring galectin interactions with human milk oligosaccharides and blood group antigens identifies BGA6 as a functional galectin-4 ligand” (The Journal of Biological Chemistry, 2024)
No constants are given. Whether binding was seen depends on the method and setting. Some entries that bind do so weakly or less than the wild type.

Protein sequences, listed by entry. Tags and fused reporters are not part of them.
UniProt P17931: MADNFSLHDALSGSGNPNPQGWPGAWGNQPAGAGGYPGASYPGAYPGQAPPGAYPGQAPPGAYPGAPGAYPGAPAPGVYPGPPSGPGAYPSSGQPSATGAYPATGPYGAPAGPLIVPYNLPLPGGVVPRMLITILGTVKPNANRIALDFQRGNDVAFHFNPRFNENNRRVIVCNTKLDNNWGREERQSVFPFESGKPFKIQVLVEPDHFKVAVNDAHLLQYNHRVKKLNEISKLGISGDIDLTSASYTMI
UniProt P09382: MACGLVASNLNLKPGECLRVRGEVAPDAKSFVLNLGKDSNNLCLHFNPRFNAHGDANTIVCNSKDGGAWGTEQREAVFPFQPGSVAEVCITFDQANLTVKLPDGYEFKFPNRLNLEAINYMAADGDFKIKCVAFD
UniProt P47929: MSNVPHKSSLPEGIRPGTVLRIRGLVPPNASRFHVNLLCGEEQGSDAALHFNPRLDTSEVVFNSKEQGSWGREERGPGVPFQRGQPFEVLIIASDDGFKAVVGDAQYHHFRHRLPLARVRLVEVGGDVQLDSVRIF

B1: full-length human galectin-4 (protein, UniProt P56470 1-323)
chain: MAYVPAPGYQPTYNPTLPYYQPIPGGLNVGMSVYIQGVASEHMKRFFVNFVVGQDPGSDVAFHFNPRFDGWDKVVFNTLQGGKWGSEERKRSMPFKKGAAFELVFIVLAEHYKVVVNGNPFYEYGHRLPLQMVTHLQVDGDLQLQSINFIGGQPLRPQGPPMMPPYPGPGHCHQQLNSLPTMEGPPTFNPPVPYFGRLQGGLTARRTIIIKGYVPPTGKSFAINFKVGSSGDIALHINPRMGNGTVVRNSLLNGSWGSEEKKITHNPFGPGQFFDLSIRCGLDRFKVYANGQHLFDFAHRLSAFQRVDTLEIQGDVTLSYVQI
B2: full-length human galectin-12 (protein, UniProt Q96DT0 1-336)
chain: MSQPSGGRAPGTRIYSWSCPTVMSPGEKLDPIPDSFILQPPVFHPVVPYVTTIFGGLHAGKMVMLQGVVPLDAHRFQVDFQCGCSLCPRPDIAFHFNPRFHTTKPHVICNTLHGGRWQREARWPHLALRRGSSFLILFLFGNEEVKVSVNGQHFLHFRYRLPLSHVDTLGIFGDILVEAVGFLNINPFVEGSREYPAGHPFLLMSPRLEVPCSHALPQGLSPGQVIIVRGLVLQEPKHFTVSLRDQAAHAPVTLRASFADRTLAWISRWGQKKLISAPFLFYPQRFFEVLLLFQEGGLKLALNGQGLGATSMNQQALEQLRELRISGSVQLYCVHS

Molecular target: T1, asialofetuin (UniProt P12763)
T1 sequence: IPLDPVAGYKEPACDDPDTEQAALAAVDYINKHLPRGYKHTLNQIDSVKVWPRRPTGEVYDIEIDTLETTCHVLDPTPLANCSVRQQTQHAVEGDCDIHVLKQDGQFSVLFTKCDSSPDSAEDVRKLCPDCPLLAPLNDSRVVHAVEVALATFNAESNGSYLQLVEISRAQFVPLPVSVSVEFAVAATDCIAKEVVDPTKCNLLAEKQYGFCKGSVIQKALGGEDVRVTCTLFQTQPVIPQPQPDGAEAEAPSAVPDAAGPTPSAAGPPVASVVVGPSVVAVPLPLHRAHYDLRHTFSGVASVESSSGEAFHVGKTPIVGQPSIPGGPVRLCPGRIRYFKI
Experiment: ELISA; competitive solid-phase assay (SPA): asialofetuin 10 ug/ml coated on 96-well plates in sodium carbonate buffer pH 9.6; galectin (20-40 ug/ml) in PBS-BSA 0.3% preincubated with serial dilutions of oligosaccharide inhibitors (2 h, 37 C); bound galectin detected with anti-galectin antibodies and HRP; both purified

Row | binding | Molecule
1 | binds | human galectin-3 (from UniProt P17931 1-250)
2 | binds | human galectin-1 (from UniProt P09382 1-135)
3 | binds | human galectin-7 (from UniProt P47929 1-136)
4 | binds | B1
5 | binds | B2
